In publication PMC8833133:
Results are given in words; binding and its absence hold for the method and conditions named. Binding seen in cells or lysates may run through a third protein. A yes stands for co-enrichment or nearness to the bait. Other partners may have been found.

Chains of the proteins cited; added tags and fusions are not shown.
UniProt Q9JI91: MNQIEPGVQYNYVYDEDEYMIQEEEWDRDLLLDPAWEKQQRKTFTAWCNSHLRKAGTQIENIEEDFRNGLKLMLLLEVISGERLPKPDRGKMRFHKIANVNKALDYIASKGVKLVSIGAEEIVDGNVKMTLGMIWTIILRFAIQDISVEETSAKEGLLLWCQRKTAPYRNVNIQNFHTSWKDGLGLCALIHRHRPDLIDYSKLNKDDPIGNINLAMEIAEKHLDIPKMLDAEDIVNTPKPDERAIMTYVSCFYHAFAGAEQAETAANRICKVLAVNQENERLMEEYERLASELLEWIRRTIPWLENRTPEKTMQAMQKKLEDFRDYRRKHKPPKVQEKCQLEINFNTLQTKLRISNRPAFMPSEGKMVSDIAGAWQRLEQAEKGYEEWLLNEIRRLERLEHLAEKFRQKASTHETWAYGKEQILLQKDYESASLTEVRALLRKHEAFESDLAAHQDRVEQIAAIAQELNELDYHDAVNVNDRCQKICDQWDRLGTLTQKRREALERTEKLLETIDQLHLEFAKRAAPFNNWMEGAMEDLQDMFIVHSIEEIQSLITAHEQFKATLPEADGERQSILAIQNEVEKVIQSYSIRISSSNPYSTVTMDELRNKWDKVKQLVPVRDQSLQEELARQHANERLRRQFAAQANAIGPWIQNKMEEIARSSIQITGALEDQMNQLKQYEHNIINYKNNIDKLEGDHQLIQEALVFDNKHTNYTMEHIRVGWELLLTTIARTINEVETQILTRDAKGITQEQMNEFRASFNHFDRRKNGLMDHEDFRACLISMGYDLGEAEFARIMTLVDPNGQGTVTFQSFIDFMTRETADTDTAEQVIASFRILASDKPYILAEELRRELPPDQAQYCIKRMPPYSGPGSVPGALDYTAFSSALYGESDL
UniProt Q91Z83: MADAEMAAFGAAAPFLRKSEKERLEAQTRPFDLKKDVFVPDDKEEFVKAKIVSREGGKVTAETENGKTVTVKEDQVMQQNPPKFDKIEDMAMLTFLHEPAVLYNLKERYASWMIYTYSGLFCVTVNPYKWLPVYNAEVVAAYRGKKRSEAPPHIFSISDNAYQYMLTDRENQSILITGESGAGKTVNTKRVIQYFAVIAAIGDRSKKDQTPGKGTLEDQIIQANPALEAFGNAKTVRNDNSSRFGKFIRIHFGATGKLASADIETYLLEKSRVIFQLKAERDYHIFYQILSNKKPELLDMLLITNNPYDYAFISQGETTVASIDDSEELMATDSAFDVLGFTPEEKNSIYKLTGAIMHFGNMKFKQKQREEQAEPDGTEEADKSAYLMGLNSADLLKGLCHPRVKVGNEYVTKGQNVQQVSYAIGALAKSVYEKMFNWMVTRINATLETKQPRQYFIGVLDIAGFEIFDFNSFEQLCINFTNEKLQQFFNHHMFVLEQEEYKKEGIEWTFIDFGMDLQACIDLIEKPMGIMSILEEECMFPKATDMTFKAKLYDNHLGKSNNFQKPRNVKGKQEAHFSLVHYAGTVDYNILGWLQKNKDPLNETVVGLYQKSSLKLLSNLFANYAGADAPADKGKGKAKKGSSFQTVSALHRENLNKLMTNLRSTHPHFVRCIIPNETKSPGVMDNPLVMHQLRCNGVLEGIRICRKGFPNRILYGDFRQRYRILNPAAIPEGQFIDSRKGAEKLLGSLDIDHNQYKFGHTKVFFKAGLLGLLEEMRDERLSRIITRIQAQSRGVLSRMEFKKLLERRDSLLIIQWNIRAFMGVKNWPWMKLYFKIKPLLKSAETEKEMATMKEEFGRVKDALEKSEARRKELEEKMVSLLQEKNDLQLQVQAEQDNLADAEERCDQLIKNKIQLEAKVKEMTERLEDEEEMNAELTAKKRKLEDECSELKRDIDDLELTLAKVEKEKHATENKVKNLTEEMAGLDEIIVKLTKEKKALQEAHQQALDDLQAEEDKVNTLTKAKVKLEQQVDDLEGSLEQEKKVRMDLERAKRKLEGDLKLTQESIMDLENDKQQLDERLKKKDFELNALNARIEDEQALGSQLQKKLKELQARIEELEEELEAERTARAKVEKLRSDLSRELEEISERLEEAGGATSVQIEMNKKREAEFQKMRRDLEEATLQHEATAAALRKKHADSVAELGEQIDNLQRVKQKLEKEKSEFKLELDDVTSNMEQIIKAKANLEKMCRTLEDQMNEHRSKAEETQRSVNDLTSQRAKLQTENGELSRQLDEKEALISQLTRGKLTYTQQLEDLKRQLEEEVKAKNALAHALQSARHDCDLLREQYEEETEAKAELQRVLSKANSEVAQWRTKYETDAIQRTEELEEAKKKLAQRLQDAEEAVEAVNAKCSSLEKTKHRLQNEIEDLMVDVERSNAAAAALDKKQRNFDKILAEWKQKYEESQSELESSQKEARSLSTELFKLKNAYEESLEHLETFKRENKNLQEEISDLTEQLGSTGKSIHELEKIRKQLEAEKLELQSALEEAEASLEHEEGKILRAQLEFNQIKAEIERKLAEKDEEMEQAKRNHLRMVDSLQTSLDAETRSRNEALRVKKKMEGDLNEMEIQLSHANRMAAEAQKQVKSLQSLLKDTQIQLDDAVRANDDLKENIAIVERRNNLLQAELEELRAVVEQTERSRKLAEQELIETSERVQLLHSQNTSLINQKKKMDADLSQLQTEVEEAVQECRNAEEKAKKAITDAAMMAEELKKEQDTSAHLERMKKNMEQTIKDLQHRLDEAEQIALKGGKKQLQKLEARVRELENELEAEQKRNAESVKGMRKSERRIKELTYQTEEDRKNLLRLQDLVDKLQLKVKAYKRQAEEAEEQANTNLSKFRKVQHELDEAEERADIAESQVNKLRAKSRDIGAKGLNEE

T1: Sorbin and SH3 domain-containing protein 2 (mouse (endogenous in mouse myocardial tissue)) (UniProt Q3UTJ2)
T1 sequence: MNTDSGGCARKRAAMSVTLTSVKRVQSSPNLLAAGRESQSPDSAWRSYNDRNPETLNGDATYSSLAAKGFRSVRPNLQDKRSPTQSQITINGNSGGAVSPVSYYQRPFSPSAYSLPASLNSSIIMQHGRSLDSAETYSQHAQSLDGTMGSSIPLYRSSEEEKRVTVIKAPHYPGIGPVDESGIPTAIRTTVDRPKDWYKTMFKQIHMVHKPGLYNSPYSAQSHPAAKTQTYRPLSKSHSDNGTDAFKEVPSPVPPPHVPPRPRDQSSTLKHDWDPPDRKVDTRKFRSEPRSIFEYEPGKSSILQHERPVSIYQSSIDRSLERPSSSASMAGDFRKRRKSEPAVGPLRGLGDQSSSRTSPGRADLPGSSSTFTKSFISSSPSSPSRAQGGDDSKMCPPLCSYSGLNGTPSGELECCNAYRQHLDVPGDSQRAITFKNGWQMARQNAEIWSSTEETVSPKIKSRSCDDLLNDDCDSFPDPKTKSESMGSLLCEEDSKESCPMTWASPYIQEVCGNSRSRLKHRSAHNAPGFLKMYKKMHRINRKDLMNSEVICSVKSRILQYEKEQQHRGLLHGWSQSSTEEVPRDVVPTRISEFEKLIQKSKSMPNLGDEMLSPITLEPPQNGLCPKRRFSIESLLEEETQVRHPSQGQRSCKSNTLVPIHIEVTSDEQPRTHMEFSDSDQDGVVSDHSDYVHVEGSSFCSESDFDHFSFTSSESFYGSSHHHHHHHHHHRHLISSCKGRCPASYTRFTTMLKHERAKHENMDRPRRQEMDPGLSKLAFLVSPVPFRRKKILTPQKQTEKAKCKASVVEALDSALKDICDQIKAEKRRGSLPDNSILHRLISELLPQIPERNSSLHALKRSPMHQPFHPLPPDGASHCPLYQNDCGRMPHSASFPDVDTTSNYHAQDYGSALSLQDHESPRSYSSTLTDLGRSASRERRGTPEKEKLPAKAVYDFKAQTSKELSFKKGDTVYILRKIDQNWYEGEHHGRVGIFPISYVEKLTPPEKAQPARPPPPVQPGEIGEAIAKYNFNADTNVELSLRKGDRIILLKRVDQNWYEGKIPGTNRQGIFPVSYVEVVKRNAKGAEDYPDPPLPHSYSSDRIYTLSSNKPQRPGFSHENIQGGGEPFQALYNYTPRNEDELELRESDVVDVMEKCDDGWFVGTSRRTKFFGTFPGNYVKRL

B1: YWHAQ (protein, UniProt P68254 1-245)
chain: MEKTELIQKAKLAEQAERYDDMATCMKAVTEQGAELSNEERNLLSVAYKNVVGGRRSAWRVISSIEQKTDTSDKKLQLIKDYREKVESELRSICTTVLELLDKYLIANATNPESKVFYLKMKGDYFRYLAEVACGDDRKQTIENSQGAYQEAFDISKKEMQPTHPIRLGLALNFSVFYYEILNNPELACTLAKTAFDEAIAELDTLNEDSYKDSTLIMQLLRDNLTLWTSDSAGEECDAAEGAEN

Each molecule was assayed against T1, Sorbin and SH3 domain-containing protein 2 (mouse (endogenous in mouse myocardial tissue)) (assay: affinity purification with mass spectrometry; IP of SORBS2 from myocardial tissue of normal adult mice (12 weeks), IgG control; silver-stained gel strips digested with trypsin, LC-MS/MS (Orbitrap Fusion Lumos)).

| binding | Molecule |
| --- | --- |
| binds | ACTN2 (from UniProt Q9JI91 1-894) |
| binds | MYH7 (from UniProt Q91Z83 1-1935) |
| binds | B1 |
